Reference: the supplement of paper PMC5949888
Most values lie at the floor of the assay. Slopes are relative: functional sequences can read slightly below zero.

system: Saccharomyces cerevisiae PS128 hsf1 delta, HSF1(1-493) fusion; test: growth estimate (transactivation domain function in HSF1 fusion, heat-shock survival) (a.u. (slope of normalised read count over time)); higher = stronger growth at 37°C, i.e. more transactivation activity; settings: library: random library
Method: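 Random 60-nt DNA library encoding peptides of up to 20 aa, fused to the C-terminus of yeast HSF1 residues 1-493 (C-terminal TAD deleted) and expressed from the native HSF1 promoter on a CEN plasmid in hsf1-deleted S. cerevisiae PS128. Cells were selected at 37°C on -trp 5-FOA plates for 0, 2, 4, 6 and 8 days and amplicons were sequenced. Growth estimate is the slope of a robust linear fit of total-sum-normalised read counts (normalised to the first time point) over time, using at least 2 replicates. Sequences are classed functional (TAD activity) above a threshold of -0.13, set from stop-codon control sequences.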

| Substance | growth estimate |
| --- | --- |
| SLRIHLPMRSLTLNLQMWNP | < -0.25 |
| GLK | < -0.25 |
| LPNWRPLTSIQDFGEIRQYT | < -0.25 |
| SLAATCVYVASSSASDQTEA | < -0.25 |
| IRVSCHPSFFRFHALASTSR | < -0.25 |
| HVKCTPSRPQPL | < -0.25 |
| LILTPRTIIADRIV | < -0.25 |
| SGSHGP | < -0.25 |
| CYFQHVDYEY | < -0.25 |
| NGVWGRGL | < -0.25 |
| KPGSQRLFFSPRGAGSSWHS | < -0.25 |
| GHL | < -0.25 |
| LNHIGWQFRVALSAWLASSR | < -0.25 |
| QYLDQFEFRSGVIVLMHRDG | < -0.25 |
| KADWVLMPNARGLVQVCPRW | < -0.25 |
| LLGKAYSQENGEASVIADRA | < -0.25 |
| LPCGEYDVLFRFTAIGGVNL | < -0.25 |
| IGLRESITNRSCFRLQL | < -0.25 |
| NRDWGQSSVLLLF | < -0.25 |
| LGAR | < -0.25 |
| GVQGRVLVLLSCDTCRSMDP | < -0.25 |
| PKSSDHIQPETHDCSGNSPV | < -0.25 |
| GYHRGSM | < -0.25 |
| DESLRIVAGRSLAGAICATT | < -0.25 |

Reformatted: entries from further up.
SLRIHLPMRSLTLNLQMWNP
  growth estimate: < -0.25
GLK
  growth estimate: < -0.25
LPNWRPLTSIQDFGEIRQYT
  growth estimate: < -0.25
SLAATCVYVASSSASDQTEA
  growth estimate: < -0.25

(next part)

| Substance | growth estimate |
| --- | --- |
| GPIRPRDQLGMKGQGLAKGW | < -0.25 |
| LIRVRTKMRICDLHWEGLAS | < -0.25 |
| SIQDWVSTTAL | < -0.25 |
| EFGNTANAADGLRDFDSMKN | < -0.25 |
| DVVSYINVSGGLCLVFEC | < -0.25 |
| VQFAWRLSRLQLLRTR | < -0.25 |
| IFLSGRNARDPARIIGHKHR | < -0.25 |
| GSTNGAYMLSGCPPGSLKTR | < -0.25 |
| NRRKAFSSQNNKHSYG | < -0.25 |
| EKGECGMQPGHAMPKE | < -0.25 |
| EKVNALLLHMESSA | < -0.25 |
| FRCRHTIPHASGGLCVYYLC | < -0.25 |
| VVG | < -0.25 |
| IDPSGMHVGSV | < -0.25 |
| MGERTNHVR | < -0.25 |
| ACGCPRRALQARST | < -0.25 |
| YLPDGYNLSRDGDTWCNSDG | < -0.25 |
| LSYSSLTSEDFAQAYSVATT | -0.243 |
| HLTSERTSWRQAL | < -0.25 |
| SRIYLAIAITAVDASLPGRT | < -0.25 |
| GHIGPTRIYAFISNAFCLEE | < -0.25 |
| YRRGVVPNRSQFRSVYCLAR | -0.241 |
| RQRGI | < -0.25 |
| GRSRRVRNKFE | < -0.25 |

| Substance | growth estimate |
| --- | --- |
| LGRALQRNVMRQVSEDTDYR | -0.245 |
| GLDSCRQPLARKQIG | < -0.25 |
| ISFLAIVMSFSGIQQFAVVH | < -0.25 |
| LMGPTEVLLETRIVH | -0.246 |
| PATSQRSGLPQWICADDATS | < -0.25 |
| TKNVHCRV | < -0.25 |
| SRVIRSIGGS | < -0.25 |
| SKVTALVHFNKLG | < -0.25 |
| QVTTYLFSDP | < -0.25 |
| STPEQWEIEKIRSYSEAVST | < -0.25 |
| SLSQIQQCASANQNLRGD | -0.171 |
| FWFTSDLEDCVRRLKTGSLN | < -0.25 |
| LTGDTLEGPE | < -0.25 |
| AGMCLNTA | < -0.25 |
| GGSVNTFHRQCKI | < -0.25 |
| EPDHNLQPGDWRWYRGHRIS | < -0.25 |
| FGLWIKMGRAGHIARRQSLG | < -0.25 |
| GYSHYSVGTSRTVLDRRLNG | < -0.25 |
| CKLRIVFRRTDRPTGVTYHG | < -0.25 |
| PRSW | < -0.25 |
| ACQPRLSQTWSRSTAQTTKS | < -0.25 |
| SSGGGKHAGRDASEVS | < -0.25 |
| ERSDLGPSPKTVP | < -0.25 |
| FSQLAV | < -0.25 |

| Substance | growth estimate |
| --- | --- |
| SKVLGVRRRRHEVS | < -0.25 |
| WEGL | < -0.25 |
| DRWVGPERLRM | < -0.25 |
| CREFR | < -0.25 |
| SRDLPHGRTFRNILRQVAI | < -0.25 |
| VSVSGCHEIGG | < -0.25 |
| YRRSDICPYSRAQLGCA | < -0.25 |
| VIPLVPQ | < -0.25 |
| EKDLIIELASCGHHLF | < -0.25 |
| CLPVQGACEPFLDVCTYPWS | < -0.25 |
| GAVYCK | < -0.25 |
| CIVRWSSACSNNGRPGQTGR | < -0.25 |
| GTIY | -0.221 |
| TACIAPGRGRPDLRLDSVRD | < -0.25 |
| GQSPNGGHNEAYL | < -0.25 |
| LKVLVYDRDRTSPHHGY | < -0.25 |
| QACGEFRPGSVATRGATCPG | < -0.25 |
| HRIAFPRTTHLYSSHRPMSP | -0.243 |
| PLLRSQ | < -0.25 |
| GYLPLLEDPQATVFRSVLRT | < -0.253 |
| HSWMHRDRIHRRGIPTGLIS | < -0.25 |
| HWRVVWEGNAGGAPH | < -0.25 |
| TQEGGHSETVDEGGSWNSAL | < -0.25 |
| FAHATAGMRRELCFNQLSGG | < -0.25 |

Copied from the list:
In growth estimate, YRRGVVPNRSQFRSVYCLAR has -0.241
In growth estimate, NRDWGQSSVLLLF has < -0.25

Later entries

| Substance | growth estimate |
| --- | --- |
| KSCGSPNASELLFPFSAGLT | < -0.25 |
| LGTCFAANWELRRYVLR | < -0.25 |
| VHLRIFTN | < -0.25 |
| TLLHRKGRYSLPLGMGLRGL | < -0.25 |
| GTCGSH | < -0.25 |
| CADVLWPCRPCSHC | < -0.25 |
| ISPSFQDYVVWSLHYQCREV | < -0.25 |
| PAIRDGTIFVCSDIVGIELV | -0.235 |
| RWID | < -0.25 |
| GMFHR | -0.219 |
| RVPANRGPALRRGGVGGSKT | < -0.25 |
| FYL | < -0.25 |
| VVDLFTRSLQTVGRVPGLSG | < -0.25 |
| LTAF | < -0.25 |
| FSDETPNMYLSHGWIYTARL | < -0.25 |
| PLTSCAVIKNSTESAERART | < -0.25 |
| SGCGIPPRRPTVLEARMLSF | < -0.25 |
| AMMTEPWTAGGGPLPAAR | < -0.25 |
| INR | < -0.25 |
| SSLVFRCVSLRLEAA | < -0.25 |
| VATVNLATSNPATVSVLGVG | < -0.25 |
| SRGQYARSHLVNPV | < -0.25 |
| WYLRMT | < -0.25 |
| LGRMPDRAGPTIEPDRDPRV | < -0.25 |

Shown in CSV form: part of the list above.
Substance,growth estimate
GTCGSH,< -0.25
CADVLWPCRPCSHC,< -0.25
ISPSFQDYVVWSLHYQCREV,< -0.25

Remaining list, next part:

| Substance | growth estimate |
| --- | --- |
| QTHPGGFTKLIQALTLCRSS | < -0.25 |
| EGSDNSVVYISSLRP | < -0.25 |
| DESRPR | < -0.25 |
| YSAYNTPSVDGVVDPTSIAV | < -0.25 |
| RQARVLSALHSAESLCLIKV | < -0.25 |
| RKRACQTVCREPGGVRCAQR | < -0.25 |
| YEALNLPSLTAGHLV | < -0.25 |
| SGDGGCPVSVMCNG | < -0.25 |
| GVVSQFGLKRTVRGCPRTET | < -0.25 |
| YLRQKLA | < -0.25 |
| PDAHQTDLRHRRMRSPAPTR | < -0.25 |
| MFWTWNNAVRSTRRGFSGTN | < -0.25 |
| INYVHPQRASVVSWLGKPVH | 0.356 |
| TVIRRCVRQSGQHGGTHVGP | -0.245 |
| ASTRLPPTKSVPPWA | < -0.25 |
| MVVS | < -0.25 |
| LSYGDM | < -0.25 |
| ESDHGKTF | < -0.25 |
| MTQQYTLLFSDSLIE | < -0.25 |
| NRPAARGVNAEIYHCTMNG | < -0.25 |
| GIQRIGARNAYGGTLGTGST | < -0.25 |
| RITGSILLYRDNALGKSTPR | < -0.25 |
| SMAVAVISEANWITLDTSAK | < -0.25 |
| GLPPVRVLQQPLSRKRGTAH | < -0.25 |

| Substance | growth estimate |
| --- | --- |
| RQF | < -0.25 |
| TRGCYLYWTGGSFTAMLYYR | < -0.25 |
| WKTH | < -0.25 |
| LPVILRHT | < -0.25 |
| LRGFDQRRTYLAG | < -0.25 |
| DCNSRRQFSALVD | < -0.25 |
| EMTSVHWSIRSTAKPDALGQ | -0.246 |
| TGE | < -0.25 |
| SQSKHVGVAPRPPRDPGTVR | < -0.25 |
| LWFILVLSQWARISKFAQGD | < -0.25 |
| FEGLESRVGATAATIRYSRP | < -0.25 |
| LSVVLPPHLIGAIKGIRDGT | < -0.25 |
| ISACS | < -0.25 |
| EVIWAQPRITDASFYA | < -0.25 |
| YGMATGLERTCGRRTCSGAC | < -0.25 |
| IRVNSPDPGLR | < -0.25 |
| IGRSWTYVYRQAKAM | < -0.25 |
| FRPGLARTISARTARLRFSI | < -0.25 |
| GWVVVKSVVRRT | < -0.25 |
| LLA | < -0.25 |
| RNCLPRNSIGWSVMTAVLGR | < -0.25 |
| IRT | < -0.25 |
| CWNKHVGVVTQLEVQEGQTR | < -0.25 |
| WYCTTWAANMEV | < -0.25 |

| Substance | growth estimate |
| --- | --- |
| NARGFNYRGGARLPYKRVCS | < -0.25 |
| QTSLS | < -0.25 |
| VGVCRCKQVHITTAFASARG | < -0.25 |
| IISV | < -0.25 |
| IPSLDMSGAIGNIVCVCRFR | < -0.25 |
| IDYTPAL | < -0.25 |
| YVLRRHSTISERPVRSVGSL | < -0.25 |
| LKGPSTCRRPHWVAFCCTVD | < -0.25 |
| DYLVKPERLWTQRNFRENKS | < -0.25 |
| QRSSININI | < -0.253 |
| SFMCQVVPCDKYAASRRERT | < -0.25 |
| TLRSE | < -0.25 |
| TLLTAPEGCRCNCRRAPLCP | < -0.25 |
| VSTRVKLTARACIPCVLLT | < -0.25 |
| AHLPRD | < -0.25 |
| TTSLLEQGGM | < -0.25 |
| RLLGRLRSLSPSKRGGKGTG | < -0.25 |
| ALTTRVER | < -0.25 |
| IMKITYFLGCDS | < -0.25 |
| IGSQHQRGRDEPNSEPF | < -0.25 |
| NCCELWNRNFRHLLLRL | < -0.25 |
| ARECHVCAQLKRSS | < -0.25 |
